For part of these data: Expression grades refer to the transcript from which the peptide derives; gene names, where given, were looked up from the sequence.
Key:
[1] = test system: source genes in OC tumors compared to a panel of normal tissues; test: Expression profiling of genes encoding the peptides (RNAseq), expression scores; parameters: species or system human; key: very highly over-expressed in OC tumors compared to a panel of normal tissues (+++); highly over-expressed in OC tumors compared to a panel of normal tissues (++); over-expressed in OC tumors compared to a panel of normal tissues (+); details: expression score of source gene
[2] = test system: ovarian cancer tissue samples; test: Identification of tumor associated peptides presented on the cell surface (HLA immunoprecipitation, LC-MS); presentation across tumor types; parameters: species or system human; details: tumor types on which the peptide was found presented (HLA immunoprecipitation, LC-MS); abbreviations in table footnote

Substance: 321: peptide found in LILRB4 (gene looked up) (SPMDTFLLI; listed as Homo sapiens) [compound 321]
- Gene Expression [1]: +
- Peptide Presentation on tumor types [2]: AML, BRCA, CLL, CRC, GBC, GBM, GC, HCC, HNSCC, MEL, NHL, NSCLC, OSCAR, PACA, PRCA, RCC, SCLC, UBC, UEC

Substance: 87: peptide found in CBX2 (gene looked up) (AVAPPTPASK; listed as Homo sapiens) [compound 87]
- Gene Expression [1]: ++
- Peptide Presentation on tumor types [2]: AML, CRC, GBC, MEL, NSCLC, OSCAR, RCC, SCLC, UEC

Substance: 226: peptide found in MELK (gene looked up) (QVDPKKRISM; listed as Homo sapiens) [compound 226]
- Gene Expression [1]: ++
- Peptide Presentation on tumor types [2]: BRCA, NHL, NSCLC, SCLC

Substance: 299: peptide found in BCAT1 (gene looked up) (HPGSSALHY; listed as Homo sapiens) [compound 299]
- Gene Expression [1]: ++
- Peptide Presentation on tumor types [2]: AML, CCC, CRC, GC, HNSCC, MEL, NHL, NSCLC, OSCAR, PACA, PRCA, RCC, UEC

Substance: 115: peptide found in MMP12 (gene looked up) (FVDNQYWRY; listed as Homo sapiens) [compound 115]
- Gene Expression [1]: +++
- Peptide Presentation on tumor types [2]: BRCA, GBC, GC, GEJC, NSCLC,OSCAR, PACA, SCLC

Substance: 308: peptide found in ESR1 (gene looked up) (YPEGAAYEF; listed as Homo sapiens) [compound 308]
- Gene Expression [1]: +++
- Peptide Presentation on tumor types [2]: PRCA, UEC

Substance: 184: peptide found in EYA2 (gene looked up) (AELEALTDLW; listed as Homo sapiens) [compound 184]
- Gene Expression [1]: ++
- Peptide Presentation on tumor types [2]: NHL, NSCLC, NSCLC

Substance: 199: peptide found in MSLN (gene looked up) (REIDESLIFY; listed as Homo sapiens) [compound 199]
- Gene Expression [1]: ++
- Peptide Presentation on tumor types [2]: NSCLC

Substance: 246: peptide found in CCR5 (gene looked up) (RYLAVVHAVF; listed as Homo sapiens) [compound 246]
- Gene Expression [1]: +
- Peptide Presentation on tumor types [2]: HCC, NHL, NSCLC, PACA, SCLC

Substance: 196: peptide found in MMP12 (gene looked up) (REMPGGPVW; listed as Homo sapiens) [compound 196]
- Gene Expression [1]: +++
- Peptide Presentation on tumor types [2]: BRCA, CCC, CRC, GC, HCC, HNSCC, MEL, NHL, NSCLC, OSCAR, PACA, SCLC, UBC, UEC

Substance: 90: peptide found in ETV1 (gene looked up) (KVAGERYVYK; listed as Homo sapiens) [compound 90]
- Gene Expression [1]: ++
- Peptide Presentation on tumor types [2]: CCC, UEC

Substance: 181: peptide found in CRABP2 (gene looked up) (GEGPKTSW; listed as Homo sapiens) [compound 181]
- Gene Expression [1]: +
- Peptide Presentation on tumor types [2]: NSCLC

Source: patent US20210340217A1, “NOVEL PEPTIDES AND COMBINATION OF PEPTIDES FOR USE IN IMMUNOTHERAPY AGAINST OVARIAN CANCER AND OTHER CANCERS” (Immatics Biotechnologies GmbH, priority 2017, published 2021)
